The list is a part of this screen's results and no random one: it covers a few groups of compounds. Not every dose and run of a compound is shown. T/C: endpoint of the treated group in % of that of the vehicle group. Some doses have a count of surviving animals in place of a T/C: the source holds a T/C of zero for them, seemingly a mark for toxic or unscored doses. Counts of survivors are from the toxicity check (mostly the fifth day) where no day follows; animals may have died later. Schedules are NCI's codes, taken here to give the interval after Q, in days (D) or hours (H), and the number of doses after X. For survival time, the PubChem record calls one and a half times the control and up active, and a quarter to a half above the control has no call in these data; cut-offs in other NCI protocols can differ. Some entries were tested several times; their values stand side by side, smallest first. Some T/C values are followed by the survivors on the day toxicity was checked, most often the fifth; without a count or a note in brackets, all were alive then.
System: CD2F1 mice, L1210 leukemia ip, survival T/C
Assay: NCI In Vivo Anticancer Drug Screen. Data for tumor model L1210 Leukemia (intraperitoneal) in CD2F1 (CDF1) mice
Conditions: higher T/C = longer survival
Method in brief: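 Tumor-bearing mice (transplanted tumor) were split into treated and vehicle control groups, and the measured endpoint of each treated group was divided by that of its vehicle controls.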

COc1ccc(O)c2c(=O)c3c(OC)cc4c(c3oc12)[C@@H]1C=CO[C@@H]1O4
T/C (T/C endpoint: mean survival time, dose: 25.0 mg/kg/injection, schedule: Q01DX009 (ip), vehicle: saline with Tween-80): 159 % of control | T/C (T/C endpoint: mean survival time, dose: 50.0 mg/kg/injection, schedule: Q01DX009 (ip), vehicle: saline with Tween-80): 162 % of control | T/C (T/C endpoint: mean survival time, dose: 100.0 mg/kg/injection, schedule: Q01DX009 (ip), vehicle: saline with Tween-80): 115 % of control

CC(O)CNC(C)C.O=[N+]([O-])c1cc([N+](=O)[O-])c(O)c([N+](=O)[O-])c1
T/C (T/C endpoint: mean survival time, dose: 75.0 mg/kg/injection, schedule: Q01DX001 (ip), vehicle: saline): 93 % of control | T/C (T/C endpoint: mean survival time, dose: 150.0 mg/kg/injection, schedule: Q01DX001 (ip), vehicle: saline): 103 % of control | survivor count (T/C endpoint: mean survival time, dose: 300.0 mg/kg/injection, schedule: Q01DX001 (ip), vehicle: saline): 0 of 6

NC(=O)c1[nH]cnc1/N=N\N(CCCl)CCCl
T/C (T/C endpoint: mean survival time, dose: 20.0 mg/kg/injection, schedule: Q01DX009 (ip), vehicle: DMSO): 131 % of control | T/C (T/C endpoint: mean survival time, dose: 30.0 mg/kg/injection, schedule: Q04DX003 (ip), vehicle: other): 106 % of control | T/C (T/C endpoint: mean survival time, dose: 40.0 mg/kg/injection, schedule: Q01DX009 (ip), vehicle: DMSO): 188 % of control | T/C (T/C endpoint: mean survival time, dose: 60.0 mg/kg/injection, schedule: Q04DX003 (ip), vehicle: other): 108 % of control | T/C (T/C endpoint: mean survival time, dose: 60.0 mg/kg/injection, schedule: Q04DX004 (ip), vehicle: other): 245 % of control | T/C (T/C endpoint: mean survival time, dose: 75.0 mg/kg/injection, schedule: Q04DX003 (ip), vehicle: carboxymethylcellulose (CMC)): 297 % of control | T/C (T/C endpoint: mean survival time, dose: 80.0 mg/kg/injection, schedule: Q01DX009 (ip), vehicle: DMSO): 235 % of control | T/C (T/C endpoint: mean survival time, dose: 90.0 mg/kg/injection, schedule: Q04DX004 (ip), vehicle: other): 286 % of control | T/C (T/C endpoint: mean survival time, dose: 95.0 mg/kg/injection, schedule: Q04DX004 (ip), vehicle: other): 258 % of control | T/C (T/C endpoint: mean survival time, dose: 120.0 mg/kg/injection, schedule: Q04DX003 (ip), vehicle: other): 160 % of control | T/C (T/C endpoint: mean survival time, dose: 135.0 mg/kg/injection, schedule: Q04DX004 (ip), vehicle: other): 322 and 331 % of control | T/C (T/C endpoint: mean survival time, dose: 150.0 mg/kg/injection, schedule: Q01DX001 (ip), vehicle: carboxymethylcellulose (CMC)): 211 % of control | T/C (T/C endpoint: mean survival time, dose: 150.0 mg/kg/injection, schedule: Q04DX003 (ip), vehicle: carboxymethylcellulose (CMC)): 335 % of control | T/C (T/C endpoint: mean survival time, dose: 150.0 mg/kg/injection, schedule: Q08DX002 (ip), vehicle: carboxymethylcellulose (CMC)): 273 % of control | T/C (T/C endpoint: mean survival time, dose: 160.0 mg/kg/injection, schedule: Q01DX009 (ip), vehicle: DMSO): 205 % of control | T/C (T/C endpoint: mean survival time, dose: 240.0 mg/kg/injection, schedule: Q01DX009 (ip), vehicle: DMSO): 197 % of control [5 of 6 alive] | T/C (T/C endpoint: mean survival time, dose: 240.0 mg/kg/injection, schedule: Q04DX003 (ip), vehicle: other): 141 % of control | T/C (T/C endpoint: mean survival time, dose: 300.0 mg/kg/injection, schedule: Q01DX001 (ip), vehicle: carboxymethylcellulose (CMC)): 267 % of control [7 of 8 alive] | T/C (T/C endpoint: mean survival time, dose: 300.0 mg/kg/injection, schedule: Q04DX003 (ip), vehicle: carboxymethylcellulose (CMC)): 215 % of control | T/C (T/C endpoint: mean survival time, dose: 300.0 mg/kg/injection, schedule: Q08DX002 (ip), vehicle: carboxymethylcellulose (CMC)): 480 % of control | T/C (T/C endpoint: mean survival time, dose: 600.0 mg/kg/injection, schedule: Q01DX001 (ip), vehicle: carboxymethylcellulose (CMC)): 267 % of control | T/C (T/C endpoint: mean survival time, dose: 600.0 mg/kg/injection, schedule: Q04DX003 (ip), vehicle: carboxymethylcellulose (CMC)): 159 % of control [6 of 8 alive] | T/C (T/C endpoint: mean survival time, dose: 600.0 mg/kg/injection, schedule: Q08DX002 (ip), vehicle: carboxymethylcellulose (CMC)): 232 % of control [7 of 8 alive] | T/C (T/C endpoint: mean survival time, dose: 1200.0 mg/kg/injection, schedule: Q01DX001 (ip), vehicle: carboxymethylcellulose (CMC)): 223 % of control [6 of 8 alive] | T/C (T/C endpoint: mean survival time, dose: 1200.0 mg/kg/injection, schedule: Q08DX002 (ip), vehicle: carboxymethylcellulose (CMC)): 181 % of control [7 of 8 alive] | T/C (T/C endpoint: median survival time, dose: 25.0 mg/kg/injection, schedule: Q01DX001 (ip), vehicle: Klucel (hydroxypropylcellulose) (HPC)): 101 % of control | T/C (T/C endpoint: median survival time, dose: 25.0 mg/kg/injection, schedule: Q01DX009 (ip), vehicle: Klucel (hydroxypropylcellulose) (HPC), evaluated on day 30): 158 % of control | T/C (T/C endpoint: median survival time, dose: 25.0 mg/kg/injection, schedule: Q01DX009 (ip), vehicle: Klucel (hydroxypropylcellulose) (HPC), evaluated on day 55): 124 % of control | T/C (T/C endpoint: median survival time, dose: 25.0 mg/kg/injection, schedule: Q04DX003 (ip), vehicle: saline with Tween-80): 112 % of control | T/C (T/C endpoint: median survival time, dose: 50.0 mg/kg/injection, schedule: Q01DX001 (ip), vehicle: Klucel (hydroxypropylcellulose) (HPC)): 107 % of control | T/C (T/C endpoint: median survival time, dose: 50.0 mg/kg/injection, schedule: Q01DX009 (ip), vehicle: Klucel (hydroxypropylcellulose) (HPC), evaluated on day 30): 197 % of control | T/C (T/C endpoint: median survival time, dose: 50.0 mg/kg/injection, schedule: Q01DX009 (ip), vehicle: Klucel (hydroxypropylcellulose) (HPC), evaluated on day 55): 184 % of control | T/C (T/C endpoint: median survival time, dose: 50.0 mg/kg/injection, schedule: Q04DX003 (ip), vehicle: saline with Tween-80): 164 % of control | T/C (T/C endpoint: median survival time, dose: 100.0 mg/kg/injection, schedule: Q01DX001 (ip), vehicle: Klucel (hydroxypropylcellulose) (HPC)): 137 % of control | T/C (T/C endpoint: median survival time, dose: 100.0 mg/kg/injection, schedule: Q01DX009 (ip), vehicle: Klucel (hydroxypropylcellulose) (HPC), evaluated on day 30): 275 % of control | T/C (T/C endpoint: median survival time, dose: 100.0 mg/kg/injection, schedule: Q01DX009 (ip), vehicle: Klucel (hydroxypropylcellulose) (HPC), evaluated on day 55): 256 % of control | T/C (T/C endpoint: median survival time, dose: 100.0 mg/kg/injection, schedule: Q04DX003 (ip), vehicle: saline with Tween-80): 213 % of control | T/C (T/C endpoint: median survival time, dose: 108.0 mg/kg/injection, schedule: Q01DX001 (ip), vehicle: other): 173 % of control | T/C (T/C endpoint: median survival time, dose: 108.0 mg/kg/injection, schedule: Q01DX001 (ip), vehicle: steroid suspending solution): 166 % of control | T/C (T/C endpoint: median survival time, dose: 180.0 mg/kg/injection, schedule: Q01DX001 (ip), vehicle: other): 181 % of control | T/C (T/C endpoint: median survival time, dose: 180.0 mg/kg/injection, schedule: Q01DX001 (ip), vehicle: steroid suspending solution): 172 % of control | T/C (T/C endpoint: median survival time, dose: 200.0 mg/kg/injection, schedule: Q01DX001 (ip), vehicle: Klucel (hydroxypropylcellulose) (HPC)): 213 % of control | T/C (T/C endpoint: median survival time, dose: 200.0 mg/kg/injection, schedule: Q01DX009 (ip), vehicle: Klucel (hydroxypropylcellulose) (HPC), evaluated on day 30): 155 % of control | T/C (T/C endpoint: median survival time, dose: 200.0 mg/kg/injection, schedule: Q01DX009 (ip), vehicle: Klucel (hydroxypropylcellulose) (HPC), evaluated on day 55): 662 % of control | T/C (T/C endpoint: median survival time, dose: 200.0 mg/kg/injection, schedule: Q04DX003 (ip), vehicle: saline with Tween-80): 370 % of control | T/C (T/C endpoint: median survival time, dose: 300.0 mg/kg/injection, schedule: Q01DX001 (ip), vehicle: other): 181 % of control | T/C (T/C endpoint: median survival time, dose: 300.0 mg/kg/injection, schedule: Q01DX001 (ip), vehicle: steroid suspending solution): 177 % of control | T/C (T/C endpoint: median survival time, dose: 400.0 mg/kg/injection, schedule: Q01DX001 (ip), vehicle: Klucel (hydroxypropylcellulose) (HPC)): 208 % of control | T/C (T/C endpoint: median survival time, dose: 400.0 mg/kg/injection, schedule: Q01DX009 (ip), vehicle: Klucel (hydroxypropylcellulose) (HPC), evaluated on day 30): 97 % of control | T/C (T/C endpoint: median survival time, dose: 400.0 mg/kg/injection, schedule: Q01DX009 (ip), vehicle: Klucel (hydroxypropylcellulose) (HPC), evaluated on day 55): 119 % of control | T/C (T/C endpoint: median survival time, dose: 500.0 mg/kg/injection, schedule: Q01DX001 (ip), vehicle: other): 168 % of control | T/C (T/C endpoint: median survival time, dose: 500.0 mg/kg/injection, schedule: Q01DX001 (ip), vehicle: steroid suspending solution): 155 % of control | T/C (T/C endpoint: median survival time, dose: 800.0 mg/kg/injection, schedule: Q01DX001 (ip), vehicle: Klucel (hydroxypropylcellulose) (HPC)): 216 % of control

Source: PubChem BioAssay AID256 (DTP/NCI, 2004)
